Measurements reported in paper PMC9110732.

Molecular target: T1, trans-2,3-enoyl-CoA reductase-like (TECRL) (human (endogenous in hiPSC-CMs)) (UniProt Q5HYJ1)
T1 sequence: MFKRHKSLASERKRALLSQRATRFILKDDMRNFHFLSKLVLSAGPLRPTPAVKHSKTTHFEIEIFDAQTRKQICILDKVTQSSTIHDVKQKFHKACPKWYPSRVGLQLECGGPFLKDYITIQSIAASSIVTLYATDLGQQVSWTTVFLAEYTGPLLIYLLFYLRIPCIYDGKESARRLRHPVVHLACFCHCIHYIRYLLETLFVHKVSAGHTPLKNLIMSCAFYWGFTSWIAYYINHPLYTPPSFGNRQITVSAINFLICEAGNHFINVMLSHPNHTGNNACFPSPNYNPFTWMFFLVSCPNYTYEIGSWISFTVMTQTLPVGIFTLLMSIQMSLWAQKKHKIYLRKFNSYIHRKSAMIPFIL
Experiment: affinity purification with mass spectrometry; mass spectrometry of the TECRL co-immunoprecipitate from hiPSC-CMs overexpressing TECRL (Table S6)

ATP synthase subunit beta, mitochondrial (ATPB) (from UniProt P06576 48-529)
binding: binds

No constants are given. Whether binding was seen depends on the method and setting. Binding seen in cells or lysates may run through a third protein. Here binding means that the protein was enriched with, or labelled near, the bait; the list need not be complete.
